According to the supplement of paper PMC12823440, “Inhibitors supercharge kinase turnover through native proteolytic circuits” (Nature, 2025):
The other results are listed elsewhere or left out. Hit calls seldom repeat between salt and free forms of one compound.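 In K562 cells expressing nanoluciferase-fused kinases, luminescence was recorded at 4 h intervals between 2 and 18 h, normalized as percent of control with DMSO at 100% and a positive control at 0%. A significant (2 sigma) signal drop marks a time point as decreased. The authors' rule for a hit is not shown and takes in more than the number of time points.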

By UniProt entry, the sequences of proteins in these tests, tags left out. Where a name states a change or a piece, a line headed by the entry shows the natural chain unless it says otherwise.
UniProt Q00534, whole entry: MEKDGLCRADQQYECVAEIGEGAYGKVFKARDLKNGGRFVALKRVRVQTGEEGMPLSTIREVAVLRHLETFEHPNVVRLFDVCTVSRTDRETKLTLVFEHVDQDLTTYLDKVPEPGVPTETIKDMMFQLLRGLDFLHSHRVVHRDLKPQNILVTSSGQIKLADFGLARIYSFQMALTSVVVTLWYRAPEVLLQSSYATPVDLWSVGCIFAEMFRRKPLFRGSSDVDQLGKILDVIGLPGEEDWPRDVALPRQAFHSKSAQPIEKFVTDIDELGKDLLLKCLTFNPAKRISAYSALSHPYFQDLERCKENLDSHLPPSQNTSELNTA
UniProt P50613: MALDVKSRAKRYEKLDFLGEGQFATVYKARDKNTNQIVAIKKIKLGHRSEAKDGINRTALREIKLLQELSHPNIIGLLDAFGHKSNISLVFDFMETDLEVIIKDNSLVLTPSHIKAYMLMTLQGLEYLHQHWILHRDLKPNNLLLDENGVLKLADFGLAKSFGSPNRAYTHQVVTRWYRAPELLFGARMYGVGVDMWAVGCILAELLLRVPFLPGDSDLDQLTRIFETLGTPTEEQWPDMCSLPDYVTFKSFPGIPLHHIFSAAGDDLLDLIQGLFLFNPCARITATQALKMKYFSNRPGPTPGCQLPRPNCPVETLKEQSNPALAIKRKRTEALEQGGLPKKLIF

The compounds below were run against CDK6 (UniProt Q00534) (assay: kinase-Nluc reporter destabilization hit call (1 = scored as downregulated) (binary); higher = compound decreases kinase abundance). Details: K562; 2-18 h.

SMILES | kinase-Nluc reporter destabilization hit call
O=c1cc(O)c2ccccc2o1 [4-Hydroxycoumarin] (10 µM) | inactive: 0
CCCCNc1nc(N)c2[nH]c(=O)n(Cc3ccc(C)nc3)c2n1 (10 µM) | inactive: 0
CCCS(=O)(=O)Nc1ccc(F)c(-n2cc(-c3cncnc3)c3nc(N(C)C4CCN(CC)CC4)ccc32)c1F (2 µM) | inactive: 0
C[C@H]1CC[C@]2(NC1)O[C@H]1C[C@H]3[C@@H]4CC[C@H]5C[C@@H](O[C@@H]6O[C@H](CO)[C@H](O[C@@H]7O[C@H](CO)[C@@H](O)[C@H](O[C@@H]8OC[C@@H](O)[C@H](O)[C@H]8O)[C@H]7O[C@@H]7O[C@H](CO)[C@@H](O)[C@H](O)[C@H]7O)[C@H](O)[C@H]6O)CC[C@]5(C)[C@H]4CC[C@]3(C)[C@H]1[C@@H]2C [Tomatine] (2.5 µM) | inactive: 0
Cc1n[nH]cc1-c1cc2nc([C@@H]3CC4CCN3CC4)[nH]c(=O)c2s1 [Simurosertib] (2.5 µM) | inactive: 0
O=Cc1cn(Cc2ccc(Cl)cc2)c2ccccc12 [Oncrasin-1] (10 µM) | inactive: 0
CC(=O)OC(C)(C)/C=C/C(=O)[C@](C)(O)[C@H]1[C@H](O)C[C@@]2(C)[C@@H]3CC=C4[C@@H](C=C(O)C(=O)C4(C)C)[C@]3(C)C(=O)C[C@]12C [Cucurbitacin E] (2.5 µM) | inactive: 0
C[C@@H]1CC[C@H]2[C@@H](C)C(=O)O[C@@H]3O[C@@]4(C)CC[C@@H]1[C@]32OO4 [Artemisinin] (10 µM) | inactive: 0
COc1ccc2c(c1)/C(=C/c1cnc[nH]1)C(=O)N2 (2.5 µM) | inactive: 0
CC(=O)O[C@H]1[C@H]2[C@@H](OC(=O)Cc3ccccc3)[C@@H](C)C[C@]2(OC(C)=O)C(=O)/C(C)=C/[C@@H]2[C@H](CC[C@@]13CO3)C2(C)C [Euphorbiasteroid] (10 µM) | inactive: 0
O=c1[nH]c2ccccc2n1C1CCN(CCCC(c2ccc(F)cc2)c2ccc(F)cc2)CC1 [Pimozide] (2.5 µM) | inactive: 0
CC(=O)Oc1ccc(/C=C/c2cc(OC(C)=O)cc(OC(C)=O)c2)cc1 [Triacetylresveratrol] (10 µM) | inactive: 0
C/C=C(/C)C(=O)O[C@H]1[C@@H]2[C@H](C)C(=O)O[C@@H]2C[C@@H](C)[C@@H]2C=CC(=O)[C@]21C [Brevilin A] (2.5 µM) | inactive: 0
O=[N+]([O-])/C=C/c1ccc2c(c1)OCO2 (2.5 µM) | inactive: 0
O=C(O)c1nn(Cc2ccc(Cl)cc2Cl)c2ccccc12 [Lonidamine] (10 µM) | inactive: 0
CC(=O)c1c(O)c(C)c(O)c(Cc2c(O)c3c(c(C(=O)/C=C/c4ccccc4)c2O)OC(C)(C)C=C3)c1O [Rottlerin] (2 µM) | inactive: 0
Cn1cc(C2=C(c3cn(C4CCN(Cc5ccccn5)CC4)c4ccccc34)C(=O)NC2=O)c2ccccc21 [Enzastaurin] (10 µM) | inactive: 0
Cc1ccccc1-n1c(Cn2ncc3c(N)ncnc32)nc2cccc(C)c2c1=O (10 µM) | inactive: 0
O=c1[nH]c2ccccc2n1C1CCN(Cc2ccc(-c3[nH]c4cc5ncnc5cc4nc3-c3ccccc3)cc2)CC1 [AKT inhibitor VIII] (2.5 µM) | inactive: 0
C=CC(=O)Nc1ccc2[nH]c(=O)n(C3CCN(Cc4ccc(-c5nc6cc[nH]c(=O)c6cc5-c5ccccc5)cc4)CC3)c2c1 [Borussertib] (10 µM) | inactive: 0
C[S+]([O-])/C=C/CCN=C=S (stereo not drawn) [Sulforaphene] (10 µM) | inactive: 0
CC1=C[C@]23C(=O)[C@@H](C=C(CO)[C@@H](O)[C@]2(O)[C@H]1O)[C@H]1[C@@H](C[C@H]3C)C1(C)C [Ingenol] (10 µM) | inactive: 0
CCCCCCCCCCCCCCCCOC[C@H](COP(=O)([O-])OCC[N+](C)(C)C)OC(C)=O (10 µM) | inactive: 0
Cc1ccccc1-n1c(Cn2cnc3c(N)ncnc32)nc2cccc(C)c2c1=O (10 µM) | inactive: 0
COc1ccc2c(c1)[nH]c1c(C)nccc12 [Harmine] (10 µM) | inactive: 0
O=C(N[C@@H](COc1ccc2[nH]c(=O)[nH]c2c1)c1ccccc1)c1cccn(Cc2ccc(F)c(F)c2)c1=O (2.5 µM) | inactive: 0
COc1cc2c(cc1F)C(c1ccccc1Cl)=Nc1c(n[nH]c1C)N2 (0.5 µM) | inactive: 0
N#CC(C#N)=Cc1ccc(O)c(O)c1 [Tyrphostin 23] (10 µM) | inactive: 0
N#CC(C#N)=NNc1cccc(Cl)c1 (2.5 µM) | inactive: 0

The compounds below were run against CDK7 (UniProt P50613) in the same assay as above. Details: K562; 2-18 h.

SMILES | kinase-Nluc reporter destabilization hit call
O=c1cc(O)c2ccccc2o1 [4-Hydroxycoumarin] (10 µM) | inactive: 0
CCCCNc1nc(N)c2[nH]c(=O)n(Cc3ccc(C)nc3)c2n1 (10 µM) | inactive: 0
CCCS(=O)(=O)Nc1ccc(F)c(-n2cc(-c3cncnc3)c3nc(N(C)C4CCN(CC)CC4)ccc32)c1F (2 µM) | inactive: 0
C[C@H]1CC[C@]2(NC1)O[C@H]1C[C@H]3[C@@H]4CC[C@H]5C[C@@H](O[C@@H]6O[C@H](CO)[C@H](O[C@@H]7O[C@H](CO)[C@@H](O)[C@H](O[C@@H]8OC[C@@H](O)[C@H](O)[C@H]8O)[C@H]7O[C@@H]7O[C@H](CO)[C@@H](O)[C@H](O)[C@H]7O)[C@H](O)[C@H]6O)CC[C@]5(C)[C@H]4CC[C@]3(C)[C@H]1[C@@H]2C [Tomatine] (2.5 µM) | inactive: 0
Cc1n[nH]cc1-c1cc2nc([C@@H]3CC4CCN3CC4)[nH]c(=O)c2s1 [Simurosertib] (2.5 µM) | inactive: 0
O=Cc1cn(Cc2ccc(Cl)cc2)c2ccccc12 [Oncrasin-1] (10 µM) | inactive: 0
CC(=O)OC(C)(C)/C=C/C(=O)[C@](C)(O)[C@H]1[C@H](O)C[C@@]2(C)[C@@H]3CC=C4[C@@H](C=C(O)C(=O)C4(C)C)[C@]3(C)C(=O)C[C@]12C [Cucurbitacin E] (2.5 µM) | inactive: 0
C[C@@H]1CC[C@H]2[C@@H](C)C(=O)O[C@@H]3O[C@@]4(C)CC[C@@H]1[C@]32OO4 [Artemisinin] (10 µM) | inactive: 0
COc1ccc2c(c1)/C(=C/c1cnc[nH]1)C(=O)N2 (2.5 µM) | inactive: 0
CC(=O)O[C@H]1[C@H]2[C@@H](OC(=O)Cc3ccccc3)[C@@H](C)C[C@]2(OC(C)=O)C(=O)/C(C)=C/[C@@H]2[C@H](CC[C@@]13CO3)C2(C)C [Euphorbiasteroid] (10 µM) | inactive: 0
O=c1[nH]c2ccccc2n1C1CCN(CCCC(c2ccc(F)cc2)c2ccc(F)cc2)CC1 [Pimozide] (2.5 µM) | inactive: 0
CC(=O)Oc1ccc(/C=C/c2cc(OC(C)=O)cc(OC(C)=O)c2)cc1 [Triacetylresveratrol] (10 µM) | inactive: 0
C/C=C(/C)C(=O)O[C@H]1[C@@H]2[C@H](C)C(=O)O[C@@H]2C[C@@H](C)[C@@H]2C=CC(=O)[C@]21C [Brevilin A] (2.5 µM) | inactive: 0
O=[N+]([O-])/C=C/c1ccc2c(c1)OCO2 (2.5 µM) | inactive: 0
O=C(O)c1nn(Cc2ccc(Cl)cc2Cl)c2ccccc12 [Lonidamine] (10 µM) | inactive: 0
CC(=O)c1c(O)c(C)c(O)c(Cc2c(O)c3c(c(C(=O)/C=C/c4ccccc4)c2O)OC(C)(C)C=C3)c1O [Rottlerin] (2 µM) | inactive: 0
Cn1cc(C2=C(c3cn(C4CCN(Cc5ccccn5)CC4)c4ccccc34)C(=O)NC2=O)c2ccccc21 [Enzastaurin] (10 µM) | inactive: 0
Cc1ccccc1-n1c(Cn2ncc3c(N)ncnc32)nc2cccc(C)c2c1=O (10 µM) | inactive: 0
O=c1[nH]c2ccccc2n1C1CCN(Cc2ccc(-c3[nH]c4cc5ncnc5cc4nc3-c3ccccc3)cc2)CC1 [AKT inhibitor VIII] (2.5 µM) | inactive: 0
C=CC(=O)Nc1ccc2[nH]c(=O)n(C3CCN(Cc4ccc(-c5nc6cc[nH]c(=O)c6cc5-c5ccccc5)cc4)CC3)c2c1 [Borussertib] (10 µM) | inactive: 0
C[S+]([O-])/C=C/CCN=C=S (stereo not drawn) [Sulforaphene] (10 µM) | inactive: 0
CC1=C[C@]23C(=O)[C@@H](C=C(CO)[C@@H](O)[C@]2(O)[C@H]1O)[C@H]1[C@@H](C[C@H]3C)C1(C)C [Ingenol] (10 µM) | inactive: 0
CCCCCCCCCCCCCCCCOC[C@H](COP(=O)([O-])OCC[N+](C)(C)C)OC(C)=O (10 µM) | inactive: 0
Cc1ccccc1-n1c(Cn2cnc3c(N)ncnc32)nc2cccc(C)c2c1=O (10 µM) | inactive: 0
COc1ccc2c(c1)[nH]c1c(C)nccc12 [Harmine] (10 µM) | inactive: 0
O=C(N[C@@H](COc1ccc2[nH]c(=O)[nH]c2c1)c1ccccc1)c1cccn(Cc2ccc(F)c(F)c2)c1=O (2.5 µM) | inactive: 0
COc1cc2c(cc1F)C(c1ccccc1Cl)=Nc1c(n[nH]c1C)N2 (0.5 µM) | inactive: 0
N#CC(C#N)=Cc1ccc(O)c(O)c1 [Tyrphostin 23] (10 µM) | inactive: 0
N#CC(C#N)=NNc1cccc(Cl)c1 (2.5 µM) | inactive: 0
